# These are yes or no findings as the source states them, for the method shown. Binding seen in cells or lysates may run through a third protein.
# Protein sequences, listed by entry. Tags and fused reporters are not part of them.
# UniProt P28033: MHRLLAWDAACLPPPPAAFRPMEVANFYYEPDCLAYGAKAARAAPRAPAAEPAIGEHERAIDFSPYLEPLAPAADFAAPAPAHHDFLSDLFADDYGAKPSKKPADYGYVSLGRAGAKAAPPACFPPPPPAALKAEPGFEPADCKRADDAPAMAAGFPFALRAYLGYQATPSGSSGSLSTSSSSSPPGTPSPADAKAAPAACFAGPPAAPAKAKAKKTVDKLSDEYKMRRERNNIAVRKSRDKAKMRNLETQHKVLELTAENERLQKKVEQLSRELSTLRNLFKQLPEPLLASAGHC
# Biological target: T1, B cell receptor associated protein 31 (UniProt Q61335)
# T1 sequence: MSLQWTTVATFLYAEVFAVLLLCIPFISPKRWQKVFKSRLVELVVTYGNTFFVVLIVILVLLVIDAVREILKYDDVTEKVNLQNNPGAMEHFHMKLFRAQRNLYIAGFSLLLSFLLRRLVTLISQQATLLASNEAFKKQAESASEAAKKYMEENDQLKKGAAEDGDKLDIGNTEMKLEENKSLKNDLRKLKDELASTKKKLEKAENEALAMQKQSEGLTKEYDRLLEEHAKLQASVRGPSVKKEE
# Assay: co-IP
sequence,measurement,value
CCAAT enhancer binding proteins β (from UniProt P28033 1-296),binding,no binding
